Protein sequences, listed by entry. Tags and fused reporters are not part of them.
UniProt P62137: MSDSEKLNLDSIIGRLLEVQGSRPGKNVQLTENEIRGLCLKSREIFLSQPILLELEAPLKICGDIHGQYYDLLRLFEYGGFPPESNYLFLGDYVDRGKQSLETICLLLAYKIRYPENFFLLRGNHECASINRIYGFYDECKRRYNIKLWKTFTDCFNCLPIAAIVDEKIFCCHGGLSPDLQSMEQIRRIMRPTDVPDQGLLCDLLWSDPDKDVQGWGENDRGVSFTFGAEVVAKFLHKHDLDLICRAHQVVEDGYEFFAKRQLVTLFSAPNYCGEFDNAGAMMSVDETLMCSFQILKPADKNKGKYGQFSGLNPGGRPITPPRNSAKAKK

In publication PMC10282026:

Target: T1, Cyclin L1 (UniProt Q52KE7)
T1 sequence: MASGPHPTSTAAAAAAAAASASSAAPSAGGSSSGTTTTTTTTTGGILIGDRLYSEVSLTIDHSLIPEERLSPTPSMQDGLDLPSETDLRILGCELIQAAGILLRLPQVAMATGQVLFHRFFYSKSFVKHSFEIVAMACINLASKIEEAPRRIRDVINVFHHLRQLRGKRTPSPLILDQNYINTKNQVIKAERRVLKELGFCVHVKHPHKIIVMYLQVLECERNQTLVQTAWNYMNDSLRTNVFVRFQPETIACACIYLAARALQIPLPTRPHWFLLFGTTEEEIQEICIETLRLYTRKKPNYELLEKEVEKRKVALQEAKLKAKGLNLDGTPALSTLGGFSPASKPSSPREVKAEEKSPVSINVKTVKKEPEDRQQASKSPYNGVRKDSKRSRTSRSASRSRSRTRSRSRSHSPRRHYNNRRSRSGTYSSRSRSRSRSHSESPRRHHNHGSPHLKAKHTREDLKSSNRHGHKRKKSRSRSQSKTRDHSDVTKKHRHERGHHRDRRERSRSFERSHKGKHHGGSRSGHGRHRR
Assay: affinity purification with mass spectrometry; Co-IP/LC-MS of the immunoprecipitated CCNL1 complex; two groups, CCNL1-IgG and CCNL1-IP

binding: binds
Substance: PPP1CA (from UniProt P62137 1-330) (enzyme)

These are yes or no findings as the source states them, for the method shown. Binding seen in cells or lysates may run through a third protein. Here binding means that the protein was enriched with, or labelled near, the bait; the list need not be complete.
